Results from paper PMC9959817 (Molecules, 2023).

How the values were obtained:
[1] = general procedure: Fmoc solid-phase peptide synthesis in flow; TentaGel S NH2 (0.25 mmol/g) with HMPA linker; also AM-PS, TentaGel HL NH2 and ChemMatrix in optimisation; HCTU; PyAOP/sym-collidine for Cys and His; settings: for step yield: purification step
[2] = general procedure: Fmoc solid-phase peptide synthesis in flow; TentaGel S NH2; HCTU; PyAOP/sym-collidine for Cys and His; settings: whole synthesis, scale 0.15 mmol
[3] = whole synthesis, 214 nm, scale of the general procedure 0.15 mmol (flow), 0.1 mmol (batch)
[4] = whole synthesis, analytical RP-HPLC (214 nm), scale of the general procedure 0.15 mmol (flow), 0.1 mmol (batch)
[5] = whole synthesis, scale of the general procedure 0.15 mmol (flow), 0.1 mmol (batch)

Substance	step yield [1]	isolated mass ([1]; whole synthesis) [mg]	crude HPLC purity [1, 3] [%]	final HPLC purity [1, 4]	crude yield [1, 5]	crude mass [2] [mg]	crude mass ([1]; whole synthesis) [mg]	final HPLC purity [1, 3] [%]	crude HPLC purity [1, 4] [%]	isolated yield ([1]; whole synthesis, based on initial resin loading, scale of the general procedure 0.15 mmol (flow), 0.1 mmol (batch)) [%]	crude yield ([1]; whole synthesis, scale of the general procedure 0.15 mmol (flow), 0.1 mmol (batch), run 1) [%]	crude yield ([1]; whole synthesis, scale of the general procedure 0.15 mmol (flow), 0.1 mmol (batch), run 2)
PEPTIDE1{R.K.A.N.F.L.A.K.L.K.E.K.L.R.T.V.I.T.S.H.I.D.K.V.L.R.P.Q.G}$$$$V2.0	52%	212.35	51.6	9 8.2%	81%	408.36						
PEPTIDE1{R.K.C.N.F.L.C.K.L.K.E.K.L.R.T.V.I.T.S.H.I.D.K.V.L.R.P.Q.G}$PEPTIDE1,PEPTIDE1,3:R3-7:R3|PEPTIDE1,PEPTIDE1,1:R1-29:R2$$$V2.0	12.1%	8.2			13.3%		68	97.8	18.6			
PEPTIDE1{R.K.C.N.F.L.C.K.L.K.E.K.L.R.T.V.I.T.S.H.I.D.K.V.L.R.P.Q.G}$PEPTIDE1,PEPTIDE1,7:R3-3:R3$$$V2.0	52%	148.15	55.6	95%	55%	284.9				28.6		
PEPTIDE1{R.K.D.N.F.L.K.K.L.K.E.K.L.R.T.V.I.T.S.H.I.D.K.V.L.R.P.Q.G}$PEPTIDE1,PEPTIDE1,3:R3-7:R3$$$V2.0	10.8%	32.56		98.1%			301.5		44.6		58.4	yield 37.8%
PEPTIDE1{R.K.D.N.F.L.[Dab].K.L.K.E.K.L.R.T.V.I.T.S.H.I.D.K.V.L.R.P.Q.G}$PEPTIDE1,PEPTIDE1,3:R3-7:R3$$$V2.0	yield 7.58%	14.17		99%	36.5%		186.92		48			
PEPTIDE1{R.K.E.N.F.L.K.K.L.K.E.K.L.R.T.V.I.T.S.H.I.D.K.V.L.R.P.Q.G}$PEPTIDE1,PEPTIDE1,3:R3-7:R3$$$V2.0	11.2%	40.75		95.8%	65.6%		363.8		54.6			
PEPTIDE1{R.K.E.N.F.L.[Dab].K.L.K.E.K.L.R.T.V.I.T.S.H.I.D.K.V.L.R.P.Q.G}$PEPTIDE1,PEPTIDE1,3:R3-7:R3$$$V2.0	yield 7%	13.38		95.1%	yield 37%		191.2		51			
PEPTIDE1{R.K.K.N.F.L.D.K.L.K.E.K.L.R.T.V.I.T.S.H.I.D.K.V.L.R.P.Q.G}$PEPTIDE1,PEPTIDE1,3:R3-7:R3$$$V2.0	yield 10.6%	31.42		99.1%	yield 57%		296.4		51			
PEPTIDE1{R.K.K.N.F.L.E.K.L.K.E.K.L.R.T.V.I.T.S.H.I.D.K.V.L.R.P.Q.G}$PEPTIDE1,PEPTIDE1,3:R3-7:R3$$$V2.0	yield 9.1%	33.97		98.8%	67.7%		373.4		43.8			

HELM strings list residues between dots; [ac] is acetyl, [am] amide, other brackets name non-standard units.
